The other results are listed elsewhere or left out. The main result of the screen is listed elsewhere. These columns were measured beside it and carry no call. Compounds called inactive in the main read-out are mostly missing here. Words in brackets tell the shape of the fitted curve; partial curves, single points and poor fits give uncertain potencies.
Assay: qHTS Assay for Modulators of Lamin A Splicing
Details: HeLa LMNA splicing GFP/RFP minigene ratio, 48 h
Procedure, shortened: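 S3 HeLa cells stably expressing lamin A-EGFP splicing minigene plus DsRed2, 600 cells/well, 48 h compound exposure at 37C. Laser-scanning cytometry; analysed as GFP (500-530 nm)/RFP (575-640 nm) total intensity ratio; 0.5% DMSO vehicle.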

[1] = measured here: RFP viability control channel
[2] = measured here: GFP splicing reporter channel

SMILES | AC50 [1] | AC50 [2]
CCc1nnc(NC(=O)CSc2nnc(-c3cc4ccccc4cc3O)n2CC)s1 | 12.6 µM [rising, single point] | 
COc1cc(C2C3=C(CC(C)(C)CC3=O)OC(N)=C2[N+](=O)[O-])ccc1O (configuration not stated) | 35.5 µM [rising, single point] | 
COc1cccc(/C=C/C(=O)OCC(=O)Nc2cccc(S(=O)(=O)N3CCOCC3)c2)c1OC | 0.00447 µM [rising, full curve, poor fit] | 0.501 µM [rising, single point]
CCOc1cc(C2C(C(=O)OC(C)C)=C(C)NC3=C2C(=O)CCC3)cc([N+](=O)[O-])c1O (configuration not stated) |  | 11.2 µM [falling, single point]
O=C(CCn1nc(-c2ccccc2)c2ccccc2c1=O)NCC1CCCO1 (configuration not stated) | 1.58 µM [rising, partial curve, poor fit] | 0.355 µM [rising, full curve]
c1ccc(-c2nc3ccccc3[nH]2)nc1 | 0.0501 µM [falling, full curve, poor fit] | 0.0562 µM [falling, partial curve, poor fit]
O=C(NCCO)c1cccc(Nc2nc(-c3ccccc3)c3cc(Cl)ccc3n2)c1 | 0.0224 µM [falling, single point] | 
c1csc(CNc2ccnc(-c3ccoc3)n2)c1 | 14.1 µM [falling, partial curve, poor fit] | 8.91 µM [falling, partial curve, poor fit]
CCOC(=O)N1CCN(C(=O)CSCC(=O)Nc2nc(-c3cccs3)cs2)CC1 | 15.8 µM [rising, single point] | 
O=c1nc2sc3ccccc3n2c(=O)n1-c1cccc(Cl)c1 | 17.8 µM [rising, single point] | 
Cc1[nH]n2c(=O)c3c(nc2c1-c1ccc(F)cc1)CCCC3 | 17.8 µM [falling, single point] | 35.5 µM [falling, single point]
Cc1ccc(CN(c2ccc(C(=O)NCc3cccnc3)cc2)S(C)(=O)=O)cc1 | 31.6 µM [rising, single point] | 
COc1ccccc1NS(=O)(=O)c1cccc(NC(=O)NC2CCCCC2)c1 | 1 µM [rising, partial curve] | 
CC1CCN(C(=S)Nc2ccc(SC(F)F)cc2)CC1 | 14.1 µM [rising, partial curve] | 5.01 µM [rising, partial curve, poor fit]
Cc1ccc(C(=O)C[n+]2cc(-c3ccccc3)n3c2CCCCC3)cc1 | 3.16 µM [rising, full curve] | 3.16 µM [rising, single point]
Cc1cc(C)nc(N/N=C/c2cccc3ccccc23)n1 | 25.1 µM [rising, single point] | 
O=C(O)CCCCCn1c(SCc2cc(=O)n3ccccc3n2)nc2ccsc2c1=O | 1.12 µM [falling, partial curve] | 0.562 µM [falling, full curve]
O=C(CSc1nc(Nc2ccccc2)nc(N2CCOCC2)n1)Nc1ccc2c(c1)OCCO2 | 7.94 µM [rising, partial curve, poor fit] | 17.8 µM [rising, partial curve, poor fit]

Complete entries, looked up by structure. Order of values: AC50 [1]	AC50 [2]
O=C(O)CCCCCn1c(SCc2cc(=O)n3ccccc3n2)nc2ccsc2c1=O in the list: 1.12 µM [falling, partial curve]	0.562 µM [falling, full curve]
Cc1ccc(C(=O)C[n+]2cc(-c3ccccc3)n3c2CCCCC3)cc1 in the list: 3.16 µM [rising, full curve]	3.16 µM [rising, single point]

(further entries)

SMILES | AC50 [1] | AC50 [2]
COc1ccc(/C=N/Nc2nnc(-c3ccccc3)c(=O)[nH]2)cc1 | 5.62 µM [rising, partial curve] | 
O=C(N/N=C/c1cccc(Oc2ccccc2)c1)c1cc[n+]([O-])cc1 | 0.00447 µM [falling, full curve, poor fit] | 
Cc1cc2cc(CNC(=S)Nc3ccc(OC(F)(F)F)cc3)ccc2[nH]1 |  | 35.5 µM [rising, single point]
COc1ccccc1C(=O)NCCC(=O)Nc1cccnc1 |  | 0.0562 µM [rising, partial curve, poor fit]
COc1cccc(-c2ccc3ncnc(N4CCN(C)CC4)c3c2)c1 | 20 µM [falling, partial curve, poor fit] | 17.8 µM [falling, partial curve, poor fit]
O=[N+]([O-])c1ccc(N=Cc2sc3ccccc3c2O)cc1 | 0.708 µM [rising, full curve, poor fit] | 
N#CC(C#N)=C(N)CSc1cccc[n+]1[O-] |  | 10 µM [falling, partial curve, poor fit]
CCOc1ccc(N(CC(=O)Nc2ccccc2)S(C)(=O)=O)cc1 | 3.16 µM [falling, single point] | 3.55 µM [falling, single point]
O=C(Nc1ccccc1O)/C(=C\c1ccccc1)NC(=O)c1ccccc1 |  | 0.0282 µM [rising, full curve, poor fit]
Cc1ccc(N2C(=O)C3C4C=CC(CNC(=S)N5CCN(c6ccccn6)CC5)(O4)C3C2=O)cc1 (configuration not stated) | 20 µM [rising, single point] | 
O=C(NC1CCCCC1)C(c1ccc2ncccc2c1)N(Cc1cccs1)C(=O)c1cccs1 (configuration not stated) | 35.5 µM [falling, single point] | 35.5 µM [falling, single point]
O=C1CSC(c2ccccc2[N+](=O)[O-])N1c1ccc(O)cc1 (configuration not stated) | 2 µM [falling, partial curve, poor fit] | 
CCOC(=O)c1sc(C)c2c1NC(C)(c1cccs1)NC2=O (configuration not stated) | 0.0251 µM [rising, full curve, poor fit] | 
CNC(=S)NCCc1ccc(OC)cc1 | 39.8 µM [falling, partial curve, poor fit] | 
O=C(NCC1CCCC(CNC(=O)N2CCc3ccccc32)C1)N1CCc2ccccc21 (configuration not stated) | 14.1 µM [rising, single point] | 
CC1CCCN(S(=O)(=O)c2ccc(C(=O)Nc3nnc(-c4ccccc4Cl)o3)cc2)C1 (configuration not stated) | 1.58 µM [rising, full curve, poor fit] | 
O=C(NCc1ccc2c(c1)OCO2)c1cccc(S(=O)(=O)N2CCCCC2)c1 | 15.8 µM [rising, single point] | 

From PubChem BioAssay AID1487 (National Center for Advancing Translational Sciences (NCATS), 2009)
